Source: patent US11173129B2, “Nanowire-coated microdevice and method of making and using the same” (The Regents of the University of California, priority 2014, dated 2021)

Assay: Drug/reagent loading (localization) efficiency on PCL nanowire arrays by confocal fluorescence imaging
Type: physicochemical
Details: elevated 40 μm features with PCL nanowires, loaded at 5 μg/cm^2, inverted and dried; averaged confocal Z-stacks

## Oregon Green 488 paclitaxel
  Drug loading efficiency (ratio of fluorescence intensity over micropatterned regions to intensity over entire analyzed region): 94±1%

## FITC-BSA: water-soluble protein, fluorescein isothiocyanate labeled bovine serum albumin
  Drug loading efficiency (ratio of fluorescence intensity over micropatterned regions to intensity over entire analyzed region): 88±2%
